Measurements: the supplement of paper PMC3741180, “A Novel High Throughput Biochemical Assay to Evaluate the HuR Protein-RNA Complex Formation” (PLoS ONE, 2013)
Values joined by “and” are separate entries in the source; they are usually repeats but may differ in a detail not shown here. Equal values may be shown once. This is one part of the list. This data set is noisy: repeats of one test often differ as much as different tests do.

Sequences of proteins named here, by UniProt entry; tags and fusion partners are left off.
UniProt Q15717, whole entry: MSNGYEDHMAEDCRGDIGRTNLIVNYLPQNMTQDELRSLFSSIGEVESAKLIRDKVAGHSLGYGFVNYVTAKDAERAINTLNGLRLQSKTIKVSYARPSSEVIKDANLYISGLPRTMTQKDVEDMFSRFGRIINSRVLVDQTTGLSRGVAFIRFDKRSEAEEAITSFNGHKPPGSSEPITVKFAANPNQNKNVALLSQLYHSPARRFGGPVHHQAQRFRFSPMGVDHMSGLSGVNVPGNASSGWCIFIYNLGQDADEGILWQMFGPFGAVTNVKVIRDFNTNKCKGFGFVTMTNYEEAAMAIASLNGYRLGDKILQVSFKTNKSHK

molecular target: HuR (ELAVL1) - TNFalpha ARE RNA complex (UniProt Q15717); experiment: AlphaScreen HuR-RNA complex signal Z-score relative to positive (Bi-TNF, DMSO) controls (Z-score (SD units of positive control)); higher = more complex signal; details: screen stage: primary screen; compound concentration: 25 nM

| SMILES | AlphaScreen HuR-RNA complex signal Z-score |
| --- | --- |
| CC[C@@H](C(=O)[C@@H](C)[C@@H](O)[C@H](C)[C@@H]1O[C@@H]([C@@H](CC)C(=O)O)CC[C@@H]1C)[C@H]1O[C@]2(C=C[C@@H](O)[C@]3(CC[C@@](C)([C@H]4CC[C@](O)(CC)[C@H](C)O4)O3)O2)[C@H](C)C[C@@H]1C | 0.58 |
| O=c1ccc2cc(O[C@@H]3O[C@H](CO)[C@@H](O)[C@H](O)[C@H]3O)c(O)cc2o1 | 2.11 and 0.779 |
| NCC(O)c1ccc(O)cc1 (stereo not drawn) | 0.488 |
| O=c1c2ccccc2[se]n1-c1ccccc1 | 1.85 |
| C[C@]12CC[C@H]3[C@@H](CCC4=CC(=O)CC[C@@]43C)[C@@H]1CC[C@@H]2O | 0.315 |
| C[C@]12CCC(=O)C[C@@H]1CC[C@@H]1[C@@H]2CC[C@]2(C)C(=O)CC[C@@H]12 [5alpha-ANDROSTAN-3,17-DIONE] | 1.04 |
| CC(=O)O[C@H]1C[C@@H]2CC[C@@H]3[C@H](CC[C@@]4(C)[C@H]3C[C@H]([N+]3(C)CCCCC3)[C@@H]4OC(C)=O)[C@@]2(C)C[C@@H]1[N+]1(C)CCCCC1 | 1.45 |
| C[C@]12CC[C@H](O)C[C@H]1CC[C@@H]1[C@@H]2CC[C@]2(C)[C@@H](C3=CC(=O)OC3)[C@@H](O)C[C@]12O | 2.97 |
| CNC(=O)CSP(=S)(OC)OC | 1.34 |
| CCSCC[C@H](N)C(=O)O | 2.16 |
| CCNc1nc(Cl)nc(NC(C)C)n1 | 0.91 |
| COc1c2c(cc3c1OCO3)CCN(C)C2 | 2.67 |
| CC(=O)O[C@H]1C[C@@H](OC(C)=O)C(C)(C)C2C[C@@H](OC(C)=O)[C@]3(C)C(CC[C@@]4(C)[C@H](c5ccoc5)C(=O)[C@H]5O[C@]543)[C@]21C (stereo partly drawn) | -3.5 |
| CCCN(CCC)c1c([N+](=O)[O-])cc(C(F)(F)F)cc1[N+](=O)[O-] | 1 |
| C=C(C)[C@H]1CN[C@H](C(=O)O)[C@H]1CC(=O)O | 1.22 |
| C[C@@H]1CC[C@@]2(OC1)O[C@H]1[C@@H](O)[C@H]3[C@@H]4CC[C@H]5C[C@@H](O[C@@H]6O[C@H](CO)[C@H](O[C@@H]7O[C@H](CO)[C@@H](O)[C@H](O[C@@H]8OC[C@@H](O)[C@H](O)[C@H]8O)[C@H]7O[C@@H]7O[C@H](CO)[C@H](O)[C@H](O[C@@H]8O[C@H](CO)[C@@H](O)[C@H](O)[C@H]8O)[C@H]7O)[C@H](O)[C@H]6O)[C@H](O)C[C@]5(C)[C@H]4CC[C@]3(C)[C@H]1[C@@H]2C | 1.55 |
| Cc1cc(O)ccc1Cl | -3.67 |
| C=C[C@H]1CN2CC[C@H]1C[C@H]2[C@H](OC(=O)OCC)c1ccnc2ccc(OC)cc12 | 0.313 |
| Nc1ncn[nH]1 | 2.02 |
| CCCCC[C@H]1C(=O)O[C@H](C)[C@H](NC(=O)c2cccc(NC=O)c2O)C(=O)O[C@@H](C)[C@@H]1OC(=O)CC(C)C [ANTIMYCIN A (A1 shown)] | -0.135 |
| CC[C@H]1CN2CC[C@H]1C[C@@H]2[C@@H](O)c1ccnc2ccc(OC)cc12 | 1.3 |
| CC(C)=CCCC1(C)C=Cc2c(O)c3c(c(CC=C(C)C)c2O1)OC12C(CC4CC1C(C)(C)OC2(C/C=C(/C)C(=O)O)C4O)C3=O (stereo not drawn) | 1.12 |
| CC(C)N(CCC(C(N)=O)(c1ccccc1)c1ccccn1)C(C)C (stereo not drawn) | -0.634 |
| CC[C@@]1(O)C[C@H](O[C@H]2C[C@H](N(C)C)[C@H](O)[C@H](C)O2)c2c(cc3c(c2O)C(=O)c2c(O)cccc2C3=O)[C@H]1C(=O)OC | 2.42 |
| COP(N)(=O)SC (stereo not drawn) | 3.01 |
| C[C@H](N)[C@H](O)c1ccc(O)c(O)c1 | 1.35 |
| O=[N+]([O-])O[C@@H]1CO[C@H]2[C@@H]1OC[C@@H]2O | 0.551 |

An excerpt from above in order of formula weight, smallest number first:

| SMILES | AlphaScreen HuR-RNA complex signal Z-score |
| --- | --- |
| Nc1ncn[nH]1 | 2.02 |
| COP(N)(=O)SC (stereo not drawn) | 3.01 |
| CCSCC[C@H](N)C(=O)O | 2.16 |
| O=[N+]([O-])O[C@@H]1CO[C@H]2[C@@H]1OC[C@@H]2O | 0.551 |
| C=C(C)[C@H]1CN[C@H](C(=O)O)[C@H]1CC(=O)O | 1.22 |
| CNC(=O)CSP(=S)(OC)OC | 1.34 |
| C[C@]12CC[C@H]3[C@@H](CCC4=CC(=O)CC[C@@]43C)[C@@H]1CC[C@@H]2O | 0.315 |
| CC[C@H]1CN2CC[C@H]1C[C@@H]2[C@@H](O)c1ccnc2ccc(OC)cc12 | 1.3 |
| CCCN(CCC)c1c([N+](=O)[O-])cc(C(F)(F)F)cc1[N+](=O)[O-] | 1 |
| CC(C)N(CCC(C(N)=O)(c1ccccc1)c1ccccn1)C(C)C (stereo not drawn) | -0.634 |
| C[C@]12CC[C@H](O)C[C@H]1CC[C@@H]1[C@@H]2CC[C@]2(C)[C@@H](C3=CC(=O)OC3)[C@@H](O)C[C@]12O | 2.97 |
| C=C[C@H]1CN2CC[C@H]1C[C@H]2[C@H](OC(=O)OCC)c1ccnc2ccc(OC)cc12 | 0.313 |
| CCCCC[C@H]1C(=O)O[C@H](C)[C@H](NC(=O)c2cccc(NC=O)c2O)C(=O)O[C@@H](C)[C@@H]1OC(=O)CC(C)C [ANTIMYCIN A (A1 shown)] | -0.135 |
| CC(=O)O[C@H]1C[C@@H]2CC[C@@H]3[C@H](CC[C@@]4(C)[C@H]3C[C@H]([N+]3(C)CCCCC3)[C@@H]4OC(C)=O)[C@@]2(C)C[C@@H]1[N+]1(C)CCCCC1 | 1.45 |

(list continues)

| SMILES | AlphaScreen HuR-RNA complex signal Z-score |
| --- | --- |
| OC1CCCCC1N1CCC(c2ccccc2)CC1 (stereo not drawn) | 0.822 |
| N[C@@H](Cc1ccc(N(CCCl)CCCl)cc1)C(=O)O | -0.153 |
| NC(=O)c1ccc(N)nc1 | 1.39 |
| CC(C)=CCOc1c2occc2cc2ccc(=O)oc12 | 2.25 |
| CC1=CC(=O)c2c(O)cccc2C1=O | 1.11 |
| O=C1CN=C(c2ccccc2Cl)c2cc([N+](=O)[O-])ccc2N1 | 1.11 |
| C[C@H]1O[C@H](O[C@H]2[C@H](O)[C@@H](O)[C@@H](O)[C@H](O)[C@@H]2O)[C@@H](N)C[C@@H]1NC(=N)C(=O)O | 0.301 |
| CN1[C@@H]2CC[C@H]1C[C@@H](OC(=O)[C@H](CO)c1ccccc1)C2 | 1.66 |
| ClC1=C(Cl)C2(Cl)C3C(Cl)C(Cl)CC3C1(Cl)C2(Cl)Cl (stereo not drawn) | 2.34 |
| O=C1C=CC(=O)c2c(O)cccc21 | 1.65 |
| COc1ccc2c(c1)[C@]13CCCC[C@@H]1[C@H](C2)N(C)CC3 | -1.64 |
| C=C[C@H]1CN2CC[C@H]1C[C@H]2[C@H](O)c1ccnc2ccccc12 | 0.0721 |
| C[C@H]1O[C@@H](O[C@H]2[C@@H](O)C[C@H](O[C@H]3[C@@H](O)C[C@H](O[C@H]4CC[C@@]5(C)[C@H](CC[C@@H]6[C@@H]5CC[C@]5(C)[C@@H](C7=CC(=O)OC7)[C@@H](O)C[C@]65O)C4)O[C@@H]3C)O[C@@H]2C)C[C@H](O)[C@@H]1O | 1.86 |
| CC1=NCCc2c1[nH]c1cc(O)ccc21 | 1.33 |
| CSc1nc(NC(C)C)nc(NC(C)C)n1 | 2.29 |
| COc1cc(OC)c2c(c1)O[C@H](c1ccc(OC)c(OC)c1)[C@@H](O)C2 | 0.916 |
| CNC(=O)ON=C(C)SC | 2.2 |
| C=CC[C@]1(O)CC[C@H]2[C@@H]3CCC4=CC(=O)CCC4=C3C=C[C@@]21C | 0.351 |
| OC[C@@H]1CCCN2CCCC[C@H]12 | 2.1 |
| C1CCc2nnnn2CC1 | 4.55 |
| CC(Cc1ccc(O)cc1)NCC(O)c1cc(O)cc(O)c1 (stereo not drawn) | 0.761 |
| C=C[C@H]1CN2CC[C@H]1C[C@@H]2[C@@H](O)c1ccnc2ccccc12 | 0.173 |
| CC(C)CC(N(C)C)C1(c2ccc(Cl)cc2)CCC1 (stereo not drawn) | 2.71 |
| O=C([O-])c1ccccc1-c1c2cc(Br)c(=O)cc-2oc2[c]([Hg+])c([O-])c(Br)cc12.[Na+].[Na+].[OH-] | -0.828 |
| N#C/C(=C\c1cccc(O)c1)C(=O)O [alpha-CYANO-3-HYDROXYCINNAMIC ACID] | -0.54 |
| CC(=O)O[C@@H]1C[C@@]2(C)[C@H](c3ccoc3)C[C@H]3O[C@]32[C@]2(C)C(=O)C(O)=C3C(C)(C)C(=O)C=C[C@]3(C)[C@@H]12 | 2.2 |
